Data reported in the supplement of paper PMC4604168 (melanoma cell lines).
The list shows a part of the results. Single values are uncertain, as repeats are few or missing.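 Cells were imaged in 1,536-well plates, and nuclei stained with an antibody against cleaved PARP were counted against all DNA-stained nuclei to give the apoptosis fraction. Screening doses were chosen to leave most cells alive, and resting and induced cleaved-PARP levels differ strongly between cell lines.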

What was measured:
Experiment in all cases: cleaved PARP positive nuclei fraction relative to DMSO control; melanoma cells; higher = more apoptosis
Details in all cases: library dose: low library concentration; 72 h
MZ2-MEL = system: MZ2-MEL
MeWo = system: MeWo
RPMI7951 = system: RPMI7951
RVH-421 = system: RVH-421
SkMel28 = system: SkMel28
SkMel2 = system: SkMel2
SkMel30 = system: SkMel30
UACC62 = system: UACC62
WM115 = system: WM115
WM1716 = system: WM1716
WM1745 = system: WM1745
WM3526 = system: WM3526
WM3619 = system: WM3619
WM451Lu = system: WM451Lu

| Compound | cleaved PARP positive nuclei fraction (MZ2-MEL) | cleaved PARP positive nuclei fraction (MeWo) | cleaved PARP positive nuclei fraction (RPMI7951) | cleaved PARP positive nuclei fraction (RVH-421) | cleaved PARP positive nuclei fraction (SkMel28) | cleaved PARP positive nuclei fraction (SkMel2) | cleaved PARP positive nuclei fraction (SkMel30) | cleaved PARP positive nuclei fraction (UACC62) | cleaved PARP positive nuclei fraction (WM115) | cleaved PARP positive nuclei fraction (WM1716) | cleaved PARP positive nuclei fraction (WM1745) | cleaved PARP positive nuclei fraction (WM3526) | cleaved PARP positive nuclei fraction (WM3619) | cleaved PARP positive nuclei fraction (WM451Lu) |
| --- | --- | --- | --- | --- | --- | --- | --- | --- | --- | --- | --- | --- | --- | --- |
| O=C(/C=C/c1cccnc1)NCCCCC1CCN(C(=O)c2ccccc2)CC1 + Nc1ccn([C@@H]2O[C@H](CO)[C@@H](O)C2(F)F)c(=O)n1 [gemcitabine] (first compound 0.01 µM, partner dose 0.0004 µM) | 400% | 89.6% | 120% | 181% | 28.8% | 611% | 67.7% | 35.9% | 75% | 71.2% | 106% | 19.2% | 122% | 173% |
| CCCCCCCCCCCCCCCCCCOP(=O)([O-])OC1CC[N+](C)(C)CC1 [Perifosine] + COc1ccc(C2=N[C@@H](c3ccc(Cl)cc3)[C@@H](c3ccc(Cl)cc3)N2C(=O)N2CCNC(=O)C2)c(OC(C)C)c1 [Nutlin-3] (first compound 0.4 µM, partner dose 0.1 µM) | 45% | 53.3% | 148% | 47.3% | 73.3% | 134% | 67.1% | 159% | 107% | 62.2% | 81.4% | 150% | 157% | 55.8% |
| O=C(/C=C/c1cccnc1)NCCCCC1CCN(C(=O)c2ccccc2)CC1 + Cc1cc(Nc2cc(N3CCN(C)CC3)nc(/C=C/c3ccccc3)n2)n[nH]1 [ENMD2076] (first compound 0.01 µM, partner dose 0.04 µM) | 671% | 129% | 49.4% | 71.8% | 170% | 2590% | 62.6% | 101% | 156% | 80.8% | 99.9% | 152% | 87.6% | 82.9% |
| CCCCCCCCCCCCCCCCCCOP(=O)([O-])OC1CC[N+](C)(C)CC1 [Perifosine] + Cc1cn(-c2cc(NC(=O)c3ccc(C)c(Nc4nccc(-c5cccnc5)n4)c3)cc(C(F)(F)F)c2)cn1 [nilotinib] (first compound 0.4 µM, partner dose 0.2 µM) | 41.2% | 36.4% | 66.1% | 74% | 37.1% | 117% | 53.2% | 87.5% | 74.3% | 28.6% | 123% | 30.3% | 92.4% | 99.4% |
| Cc1cc(Nc2cc(N3CCN(C)CC3)nc(Sc3ccc(NC(=O)C4CC4)cc3)n2)n[nH]1 [Tozasertib] + CC(=O)O[C@@]12CO[C@@H]1C[C@H](O)[C@@]1(C)C(=O)[C@H](O)C3=C(C)[C@@H](OC(=O)[C@H](O)[C@@H](NC(=O)OC(C)(C)C)c4ccccc4)C[C@@](O)([C@@H](OC(=O)c4ccccc4)[C@H]21)C3(C)C [Docetaxel] (first compound 0.006 µM, partner dose 0.0001 µM) | 273% | 630% | 656% | 199% | 127% | 305% | 442% | 105% | 396% | 90% | 160% | 230% | 128% | 93.4% |
| Cc1cc(Nc2cc(N3CCN(C)CC3)nc(Sc3ccc(NC(=O)C4CC4)cc3)n2)n[nH]1 [Tozasertib] + NC(=O)c1ccc(N(C(N)=O)c2c(F)cccc2F)nc1-c1ccc(F)cc1F [VX702] (first compound 0.006 µM, partner dose 0.4 µM) | 92.3% | 122% | 37.5% | 71.6% | 194% | 33.1% | 41.4% | 33.8% | 122% | 73.4% | 116% | 98.1% | 99.4% | 57.7% |
| O=C(/C=C/c1cccnc1)NCCCCC1CCN(C(=O)c2ccccc2)CC1 + CCN(CC)CCNC(=O)c1c(C)[nH]c(/C=C2\C(=O)Nc3ccc(F)cc32)c1C [sunitinib] (first compound 0.01 µM, partner dose 0.4 µM) | 855% | 158% | 137% | 328% | 36.2% | 1330% | 63% | 232% | 126% | 30.4% | 99% | 71.1% | 117% | 256% |
| O=c1[nH]nc(Sc2ncc([N+](=O)[O-])s2)n1-c1ccc2c(c1)OCCO2 + Cn1sc(=O)n(Cc2ccccc2)c1=O [TDZD-8] (first compound 0.2 µM, partner dose 0.4 µM) | 52.9% | 126% | 122% | 142% | 85.4% | 50.5% | 25.8% | 111% | 114% | 577% | 102% | 70.7% | 106% | 269% |
| Cc1cc(Nc2cc(N3CCN(C)CC3)nc(Sc3ccc(NC(=O)C4CC4)cc3)n2)n[nH]1 [Tozasertib] + CN(c1ncccc1CNc1nc(Nc2ccc3c(c2)CC(=O)N3)ncc1C(F)(F)F)S(C)(=O)=O [PF562271] (first compound 0.006 µM, partner dose 0.08 µM) | 103% | 129% | 125% | 48.5% | 83.9% | 107% | 119% | 57.5% | 116% | 85.2% | 115% | 43.7% | 88.9% | 56.1% |
